Results: publication PMC6382798
Results are given in words; binding and its absence hold for the method and conditions named. In cells and extracts the contact can be indirect. Some binding calls cover weakened binding; strength is not graded here. Where a sequence is shown, tags or fusion partners need not be part of it.

The chains behind the UniProt entries cited, without tags or fusion partners. Where a name states a change or a piece, a line headed by the entry shows the natural chain unless it says otherwise.
UniProt O75475: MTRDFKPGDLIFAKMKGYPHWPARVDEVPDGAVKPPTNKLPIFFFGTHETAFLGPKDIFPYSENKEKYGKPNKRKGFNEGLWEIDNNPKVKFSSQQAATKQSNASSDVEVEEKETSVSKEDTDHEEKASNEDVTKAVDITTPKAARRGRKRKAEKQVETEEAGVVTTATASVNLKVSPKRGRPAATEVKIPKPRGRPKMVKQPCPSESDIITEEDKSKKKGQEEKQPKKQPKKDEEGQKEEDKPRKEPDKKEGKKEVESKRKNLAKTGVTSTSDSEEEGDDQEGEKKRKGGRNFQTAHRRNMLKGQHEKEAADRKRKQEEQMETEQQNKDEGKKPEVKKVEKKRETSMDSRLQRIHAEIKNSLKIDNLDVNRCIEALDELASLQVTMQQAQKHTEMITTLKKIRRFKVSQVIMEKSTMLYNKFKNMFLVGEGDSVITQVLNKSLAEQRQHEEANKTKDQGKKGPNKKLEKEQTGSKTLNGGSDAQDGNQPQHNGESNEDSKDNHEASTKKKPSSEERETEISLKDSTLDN

Target: T1, 3xFlag-JPO2 (UniProt Q96GN5)
T1 sequence: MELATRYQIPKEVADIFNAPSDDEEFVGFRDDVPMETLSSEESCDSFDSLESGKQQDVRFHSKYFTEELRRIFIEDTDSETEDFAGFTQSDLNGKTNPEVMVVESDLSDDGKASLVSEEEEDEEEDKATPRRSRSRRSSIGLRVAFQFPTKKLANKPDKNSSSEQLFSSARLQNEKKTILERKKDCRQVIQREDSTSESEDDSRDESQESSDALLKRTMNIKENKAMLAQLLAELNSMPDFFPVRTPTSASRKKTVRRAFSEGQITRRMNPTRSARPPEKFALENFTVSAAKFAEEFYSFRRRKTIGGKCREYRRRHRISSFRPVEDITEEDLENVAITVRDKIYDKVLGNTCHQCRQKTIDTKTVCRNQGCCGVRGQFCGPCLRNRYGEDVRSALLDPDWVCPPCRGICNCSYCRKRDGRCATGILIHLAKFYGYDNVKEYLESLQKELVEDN
Assay: co-IP; HEK293T_LEDGF KO clone 1 cells co-transfected with LEDGF or LEDGF D366N and a 3xFlag-tagged partner; nuclear lysate (20 mM Tris-HCl pH 7.4, 400 mM NaCl, 0.1% IGEPAL, 1 mM DTT) incubated with anti-FLAG M2-agarose resin; washed 3 times in 400 mM NaCl buffer; Western blot with anti-Flag and anti-LEDGF(480-530)

Substance	binding
LEDGF/p75 D366N mutant (from UniProt O75475 1-530)	binds
Lens Epithelial Derived Growth Factor p75 (LEDGF/p75), wild type (from UniProt O75475 1-530)	binds
